Source: publication PMC8547044
These are yes or no findings as the source states them, for the method shown. Binding seen in cells or lysates may run through a third protein. Some binding calls cover weakened binding; strength is not graded here. One block for each substance: values may come before it.

Protein sequences, listed by entry. Tags and fused reporters are not part of them. Lines headed by an entry give the natural chain unless they say otherwise; changes in a name come on top. Residues count along the entry.
UniProt P29279, residues 27-349: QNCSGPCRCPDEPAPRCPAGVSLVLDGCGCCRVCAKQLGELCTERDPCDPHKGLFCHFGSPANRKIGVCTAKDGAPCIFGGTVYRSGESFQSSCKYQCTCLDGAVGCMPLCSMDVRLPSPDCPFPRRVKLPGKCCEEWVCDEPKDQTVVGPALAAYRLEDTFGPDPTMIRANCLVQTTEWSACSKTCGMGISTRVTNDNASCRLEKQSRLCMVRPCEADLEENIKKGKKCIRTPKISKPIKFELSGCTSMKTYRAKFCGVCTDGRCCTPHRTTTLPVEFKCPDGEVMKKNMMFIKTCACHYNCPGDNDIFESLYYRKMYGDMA
UniProt P07355: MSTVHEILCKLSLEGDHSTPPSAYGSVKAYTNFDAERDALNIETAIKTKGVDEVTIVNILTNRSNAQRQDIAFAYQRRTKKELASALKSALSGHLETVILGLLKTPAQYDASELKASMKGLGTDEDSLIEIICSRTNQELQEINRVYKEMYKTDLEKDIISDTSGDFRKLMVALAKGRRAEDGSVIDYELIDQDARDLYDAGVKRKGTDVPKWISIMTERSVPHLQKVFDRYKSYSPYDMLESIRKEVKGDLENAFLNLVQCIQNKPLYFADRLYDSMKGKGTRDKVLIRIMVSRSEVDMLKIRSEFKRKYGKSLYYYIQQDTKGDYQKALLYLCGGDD

Key:
[1] = biological target: Connective tissue growth factor (CTGF) (human (endogenous in RA FLS)) (UniProt P29279); assay: co-IP; FLS lysates (RIPA buffer with protease inhibitors), anti-CTGF mAb or anti-ANXA2 mAb at 4 °C, protein A agarose beads, washed with PBS, western blot
[2] = biological target: Annexin A2 (ANXA2) (human (endogenous in RA FLS)) (UniProt P07355); assay: as above
[3] = biological target: VN (I152L)-ANXA2 (ANXA2-full length in pBiFC-VN155 (I152L)) (human) (UniProt P07355); assay: split reporter; BiFC: pBiFC-VC155 and pBiFC-VN155 (I152L) constructs co-transfected into HEK293T cells, fluorescence microscopy after 48 h

binding [1]: binds
Substance: Annexin A2 (ANXA2) (from UniProt P07355 1-339)

binding [2]: binds
Substance: Connective tissue growth factor (CTGF) (from UniProt P29279 27-349)

binding [3]: binds
Substance: VC155-CTGF (CTGF-full length in pBiFC-VC155) (from UniProt P29279 27-349)
